In paper PMC6695496:
Results are given in words; binding and its absence hold for the method and conditions named. In cells and extracts the contact can be indirect. Some binding calls cover weakened binding; strength is not graded here.

Sequences of proteins named here, by UniProt entry; tags and fusion partners are left off.
UniProt P46940: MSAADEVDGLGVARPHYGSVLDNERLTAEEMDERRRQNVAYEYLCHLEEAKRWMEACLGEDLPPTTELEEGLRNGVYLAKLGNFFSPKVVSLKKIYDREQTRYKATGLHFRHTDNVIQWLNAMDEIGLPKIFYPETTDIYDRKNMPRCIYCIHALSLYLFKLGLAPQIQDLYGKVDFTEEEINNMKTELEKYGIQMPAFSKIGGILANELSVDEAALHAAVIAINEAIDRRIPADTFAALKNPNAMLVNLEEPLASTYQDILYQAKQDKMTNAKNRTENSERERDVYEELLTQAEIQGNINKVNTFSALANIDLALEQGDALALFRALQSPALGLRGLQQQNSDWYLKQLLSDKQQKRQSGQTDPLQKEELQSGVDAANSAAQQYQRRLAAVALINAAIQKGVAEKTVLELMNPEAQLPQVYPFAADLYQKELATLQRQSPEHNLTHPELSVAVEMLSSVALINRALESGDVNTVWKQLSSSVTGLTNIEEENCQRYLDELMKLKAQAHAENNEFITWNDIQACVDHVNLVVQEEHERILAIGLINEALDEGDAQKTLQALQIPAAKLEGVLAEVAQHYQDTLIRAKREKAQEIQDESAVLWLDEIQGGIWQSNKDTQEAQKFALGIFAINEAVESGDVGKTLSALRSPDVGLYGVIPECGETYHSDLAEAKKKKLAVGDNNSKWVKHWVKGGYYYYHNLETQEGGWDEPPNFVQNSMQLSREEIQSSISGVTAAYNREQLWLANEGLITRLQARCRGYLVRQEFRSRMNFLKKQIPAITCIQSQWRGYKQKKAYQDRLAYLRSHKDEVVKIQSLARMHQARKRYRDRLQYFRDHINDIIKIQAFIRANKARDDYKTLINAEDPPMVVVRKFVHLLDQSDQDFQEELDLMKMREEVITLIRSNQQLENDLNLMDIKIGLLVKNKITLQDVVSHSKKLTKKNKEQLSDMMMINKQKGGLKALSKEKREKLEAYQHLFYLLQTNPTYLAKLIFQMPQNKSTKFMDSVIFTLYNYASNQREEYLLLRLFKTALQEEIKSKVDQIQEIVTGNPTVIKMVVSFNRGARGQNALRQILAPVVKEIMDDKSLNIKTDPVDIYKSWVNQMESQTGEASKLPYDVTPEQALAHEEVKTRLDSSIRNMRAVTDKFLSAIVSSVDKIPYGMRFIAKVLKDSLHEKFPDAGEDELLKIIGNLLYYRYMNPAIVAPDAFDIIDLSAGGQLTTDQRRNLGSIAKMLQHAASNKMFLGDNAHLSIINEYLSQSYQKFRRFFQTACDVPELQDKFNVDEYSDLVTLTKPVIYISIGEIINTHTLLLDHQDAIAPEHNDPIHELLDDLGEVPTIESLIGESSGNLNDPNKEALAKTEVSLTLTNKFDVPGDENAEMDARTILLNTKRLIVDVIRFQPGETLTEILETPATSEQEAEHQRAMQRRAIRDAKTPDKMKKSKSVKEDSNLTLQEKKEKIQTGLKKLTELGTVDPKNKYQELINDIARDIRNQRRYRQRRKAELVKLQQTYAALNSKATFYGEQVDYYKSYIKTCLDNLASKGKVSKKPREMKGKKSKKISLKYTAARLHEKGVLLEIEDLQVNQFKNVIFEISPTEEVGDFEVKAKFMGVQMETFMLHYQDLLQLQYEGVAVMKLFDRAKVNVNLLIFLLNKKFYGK
UniProt P49841: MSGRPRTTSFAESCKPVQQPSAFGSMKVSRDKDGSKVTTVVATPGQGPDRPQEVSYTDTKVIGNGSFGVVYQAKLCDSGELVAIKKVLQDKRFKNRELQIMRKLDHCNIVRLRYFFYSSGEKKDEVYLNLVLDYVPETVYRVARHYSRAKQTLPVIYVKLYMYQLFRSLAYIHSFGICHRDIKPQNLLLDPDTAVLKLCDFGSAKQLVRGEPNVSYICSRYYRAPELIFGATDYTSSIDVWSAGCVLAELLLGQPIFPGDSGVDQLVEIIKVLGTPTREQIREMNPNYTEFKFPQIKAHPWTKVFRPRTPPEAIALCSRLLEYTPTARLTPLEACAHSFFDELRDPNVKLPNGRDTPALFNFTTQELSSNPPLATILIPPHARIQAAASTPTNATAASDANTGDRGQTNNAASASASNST
UniProt Q92973: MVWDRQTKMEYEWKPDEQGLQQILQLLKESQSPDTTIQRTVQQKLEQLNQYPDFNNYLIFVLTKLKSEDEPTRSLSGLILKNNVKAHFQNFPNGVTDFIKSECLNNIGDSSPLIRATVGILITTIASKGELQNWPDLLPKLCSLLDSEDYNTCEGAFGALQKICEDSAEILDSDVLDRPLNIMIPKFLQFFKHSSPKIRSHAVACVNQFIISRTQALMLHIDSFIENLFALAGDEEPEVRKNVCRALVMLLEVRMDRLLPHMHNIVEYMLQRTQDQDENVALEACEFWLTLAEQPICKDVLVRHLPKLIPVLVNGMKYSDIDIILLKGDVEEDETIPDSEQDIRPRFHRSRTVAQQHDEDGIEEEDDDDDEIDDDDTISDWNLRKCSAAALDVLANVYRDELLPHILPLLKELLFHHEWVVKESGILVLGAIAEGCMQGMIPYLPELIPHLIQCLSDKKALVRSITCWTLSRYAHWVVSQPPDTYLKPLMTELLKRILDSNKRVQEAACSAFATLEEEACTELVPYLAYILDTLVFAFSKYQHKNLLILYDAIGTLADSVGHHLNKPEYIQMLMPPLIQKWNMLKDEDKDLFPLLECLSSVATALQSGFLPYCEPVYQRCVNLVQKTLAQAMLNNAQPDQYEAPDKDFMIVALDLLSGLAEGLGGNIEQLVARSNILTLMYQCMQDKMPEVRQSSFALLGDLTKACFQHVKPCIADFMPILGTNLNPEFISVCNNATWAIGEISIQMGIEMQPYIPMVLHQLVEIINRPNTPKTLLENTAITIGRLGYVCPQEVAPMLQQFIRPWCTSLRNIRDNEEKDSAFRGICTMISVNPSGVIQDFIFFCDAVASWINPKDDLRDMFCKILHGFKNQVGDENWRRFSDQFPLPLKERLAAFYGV
UniProt P30153: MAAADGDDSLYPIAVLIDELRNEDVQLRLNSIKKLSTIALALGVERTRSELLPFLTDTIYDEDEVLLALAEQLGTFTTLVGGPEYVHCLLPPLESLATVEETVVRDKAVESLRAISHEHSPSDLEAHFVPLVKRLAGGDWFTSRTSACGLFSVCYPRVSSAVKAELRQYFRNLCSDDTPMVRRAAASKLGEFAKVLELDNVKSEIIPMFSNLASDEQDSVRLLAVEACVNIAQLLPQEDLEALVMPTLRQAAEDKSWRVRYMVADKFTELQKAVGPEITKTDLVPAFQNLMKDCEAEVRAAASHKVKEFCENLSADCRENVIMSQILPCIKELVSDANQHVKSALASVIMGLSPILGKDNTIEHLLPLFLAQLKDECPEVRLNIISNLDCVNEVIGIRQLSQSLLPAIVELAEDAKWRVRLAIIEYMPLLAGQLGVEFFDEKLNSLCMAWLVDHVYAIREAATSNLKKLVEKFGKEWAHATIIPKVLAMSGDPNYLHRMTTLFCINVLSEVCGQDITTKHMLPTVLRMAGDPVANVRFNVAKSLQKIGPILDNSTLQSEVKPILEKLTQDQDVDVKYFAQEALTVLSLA

Tests used:
[1] = molecular target: Venus-tagged PER2 (mouse) (UniProt O54943); experiment: co-IP; lysates of transfected U2OS cells (48 h post-transfection, RIPA buffer: 50 mM HEPES pH 7.4, 150 mM NaCl, 1% NP-40, 0.5% sodium deoxycholate) immunoprecipitated with anti-GFP antibody on protein-G magnetic beads at 4 °C overnight to capture PER2-Venus; immunoblot for endogenous partners
[2] = molecular target: PER2 (endogenous, mouse liver) (mouse (endogenous in liver)) (UniProt O54943); experiment: co-IP; mouse liver extracts immunoprecipitated and then immunoblotted with the indicated antibodies; endogenous proteins

| Substance | binding [1] | binding [2] |
| --- | --- | --- |
| IQGAP1 (CaM-binding scaffolding protein) (from UniProt P46940 1-1657) | binds | – |
| GSK3B (endogenous, U2OS cells) (from UniProt P49841 1-420) (enzyme) | binds | – |
| DYRK1A (endogenous, mouse liver) (from UniProt Q61214 1-763) (enzyme) | – | binds |

Other lines, results leading:

| binding [1] | binding [2] | Substance |
| --- | --- | --- |
| binds | – | TNPO1 (nuclear import protein; Transportin 1) (from UniProt Q92973 1-898) |
| binds | – | PPP2R1A (protein phosphatase regulatory subunit) (from UniProt P30153 1-589) |
